Reference: patent US20190248902A1
No constants are given. Whether binding was seen depends on the method and setting. Some binding calls cover weakened binding; strength is not graded here.

By UniProt entry, the sequences of proteins in these tests, tags left out. Where a name states a change or a piece, a line headed by the entry shows the natural chain unless it says otherwise.
UniProt P07306: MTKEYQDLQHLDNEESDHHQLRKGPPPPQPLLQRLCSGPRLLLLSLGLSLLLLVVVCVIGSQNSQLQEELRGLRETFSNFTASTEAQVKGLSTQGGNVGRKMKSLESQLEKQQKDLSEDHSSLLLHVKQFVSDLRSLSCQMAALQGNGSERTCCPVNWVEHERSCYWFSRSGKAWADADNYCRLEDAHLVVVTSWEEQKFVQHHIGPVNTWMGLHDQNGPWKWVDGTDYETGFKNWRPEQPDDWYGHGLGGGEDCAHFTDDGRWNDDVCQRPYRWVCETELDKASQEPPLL

B1: 202A3 (antibody, V domains shown)
VH: QVQLEQSGAEVKKPGASVKVSCKASGYTFTSYDINWVRQATGQGLEWLGWMNPKRGNTGYAQKFQGRVTMTRNTSISTAHMELSSLRSEDTAVYYCARGRYSREDYYYYYDMDVWGQGTTVTVSS
VL: DIQMSQSPSSLSASVGDRVTITCRASQGIRNDLGWYQQKPGKAPKRLICAASRLQSGVPSRFSGSGSGTEFTLTISSLQPEDFAIYYCLQHHDYPFTFGPGTKVDIK
B2: 193E7 (antibody, V domains shown)
VH: QVQLQQWGAGLLKPSETLSLTCAVYGGSFSGYFWTWIRQPPGKGLEWIGEINHSGSTNYNPSLKSRVTISVDTSKNQFSLKLSSVTAADTAVYYCARDYGADYWGQGTLVAVSA
VL: DIQMTQSPSSLSASVGDRVTITCRASQGIRNDLGWYQQKPGKAPKRLIYSASSLQRGVPSRFSGSGSGTEFTLTISSLQPEDFATYYCLQHKRYPLTFGGGTKVEIK
B3: 5E5 (antibody, V domains shown)
VH: QVQLVESGGGVVQPGRSLRLSCAASGFTFSNYVMHWVRQAPGKGLEWVAVIWYDGSNKYYADSVKGRFTISRDNSKNTLYLQMNSLRAEDTAVYYCTREVYSSGWYDYGMDVWGQGTTVTVSS
VL: DIQMTQSPSSLSASVGDRVTITCRASQGIRNDLGWYQQKPGKAPKRLIYAASSLQSGVPSRFSGSGSGTEFTLTISSLQPEDFATYYCLQHYSYPRTFGQGTKVEVK
B4: 194C10 (antibody, V domains shown)
VH: QVQLQQWGAGLLKPSETLSLTCAVSGGSFRYYYWSWIRQPPGKGLEWFGEINHSGSTNYNPSLKSRVTISIDTSKNQFSLKLRSVTAADTAVYYCARDYGAFDIWGQGTMVTVSS
VL: EIVLTQSPGTLSLSPGERATLSCRASPSVNSGYLAWYQQKPGQTPRLLIFGASSRATGIPDRFSASGSGADFTLTISRLEPEDFAVYFCQQYESSPWTFGQGTKVEIK
B5: 22G5 (antibody, V domains shown)
VH: EVQLLESGGGLVQPGGSLRLSCAASGFTFSSYAMNWVRQAPGMGLEWVSVISRSGGYTYYADSVKGRFTISRDNSKNTLYLQMNSLRAEDTAVYYCASRLAVAGSEAFDIWGQGTLVTVSS
VL: DIQMTQSPSSLSASVGDRVTITCRASQNISSYLNWYQQKQGKAPKLLIYAASSLQNGVPSRFSGRGSGTDFTLTISSLQPEDFATYYCQQSYRTPLFTFGPGTKVDFK
B6: 176H4 (antibody, V domains shown)
VH: QVQLVESGGGVVQPGRSLRLSCAASGFTFSSYGMHWVRQAPGKGLEWVAIIWYDGSYKYYADSVKGRFTISRDNSKNTLYLQMSSLRAEDTAVYYCARDAHDFWSGYFAYWGQGALVTVSS
VL: DIVMTQTPLSLSVTPGQPASISCKSSQSLLHGDGKTYLYWYLQKPGQPPQLLIYEVSNRFSGVPDRFSGSGSGTDFTLKISRVEAEDVGIYYCMQSIQIPWTFGQGTRVEIK
B7: 197G3 (antibody, V domains shown)
VH: QVQLVESGGGVVQPGRSLRLSCVASGFTFSSHGMHWVRQAPGKGLEWVAVIWYDGSNKNYADSVKGRFTISRDNSKNTLYLQMNSLRAEDTAVYYCARDPSVGYDGMDVWGQGTTVTVSS
VL: DIQMTQSPSSLSASVGDRVTITCRASQGIGNHLAWFQQKPGKAPKSLIYAASSLQSGVPSKFSGSRSGTDFSLTISSLQPEDFATYYCQQYSNYPVTFGPGTKVDIK
B8: 198G3 (antibody, V domains shown)
VH: QVQLVESGGGVVQPGRSLKLSCAASGFTFSTYGMHWVRQAPGKGLEWVAVIWYDGTNKNYADSVKGRFTISRDNSKNTLCLQMNSLRAEDTAVYYCARDQGVGYDGLDVWGQGTTVTVSS
VL: DIQMAQSPSSLSASVGDRVTITCRTSQGIGKYLAWFQQKPGKAPKSLLYKASSLQGGVPSKFSGSGSGTDFTLTISSLQPEDFATYYCQQYMTYPLTFGGGTKVEIK
B9: 4H6 (antibody, V domains shown)
VH: QVQLVQSGAEVKKPGASVKVSCKASGYTFTDYYLHWVRQAPGQGLEWMGWIHPNSGGTNYAQKFQGRVTMTRDTSISTAYMGLSSLRSDDTAVYYCARDGTSSFDYWGQGTLVTVSS
VL: DIQMTQSPSSVSASVGDRVTITCRASQGISRWLAWYQQKPGKAPKLLIYGASSLQSGVPSRFSGSGSGTDFTLTISSLQPEDFAIYYCQQANSFPFTFGPGTKVDIK
B10: 218G4 (antibody, V domains shown)
VH: QVQLVESGGGVVQPGRSLRLSCAASGFTFSSYGLHWVRQAPGKGLEWVAVIWYDGSNKYYADSVKGRFTISRDNSKNTLYLQMNSLRVEDTAVYYCANWYYYYYGMDVWGQGTTVTVSS
VL: QSVLTQPPSVSAAPGQKVTISCSGSSSNIGNNYVSWYQQLPGTAPKLLLYDSNKRPSGIPARFSGSKSGTSATLGITGLQTGDEADYYCGTWDSSLNTVVFGGGTKLTVL
B11: 198D2 (antibody, V domains shown)
VH: QVQLVESGGGVVQPGRSLRLSCAASGFTFRSYGMHWVRQAPGKGLEWVAVIIYDGSYKYYADSVKGRFTISRDNSKNTLYLQMNSLRAEDTAVYYCARTYSGGMDVWGQGTTVTVSS
VL: QSVLTQPPSVSAAPGQKVTISCSGSSSNIGSNYVSWYQQLPGTAPKVLIYDNNKRPSGIPDRFSGSKSGTSATLGITGLQTGDEADYYCGTWDSRLNVGVFGGGTKLTVL
B12: 6G7 (antibody, V domains shown)
VH: QVQLVESGGGVVQPGRSLRLSCAASGFTFSSYGMHWVRQTPGKGLEWVAIISYVGKNKYYADSVKGRFTISRDNSKNTLYLQMNSLRAEDTAVYYCARRGNSYGGYGMDVWGQGTTVTVSS
VL: DIQMTQSPSSRSASVGDRVTITCQASQDISNYLNWCQQKPGKALKLLIYDASTLETGVPSRFSGSGSGTDFTFTISSVQPEDIATYYCQQYDNVPITFGQGTRLEIK
B13: 7E11 (antibody, V domains shown)
VH: QVQLVESGGGVVQPGRSLRLSCAASGFTFSSFGMHWVRQAPGKGLEWVAIIWHDGSNKYYADSVKGRFTISRDNSNNTLYLQMSSLRAEDTAVYYCARDLSMGGMDVWGQGTTVTVSS
VL: DIQMTQSPSSLSASVGDRVTIACRASQNIISYLNWYQQKPGKAPKFLIYTASSLQSGVPSRFSGSGSGTDFTLTISSLQPEDFAIYYCQQTYSTPLTFGGGTKVEIK
B14: 25A4 (antibody, V domains shown)
VH: QVLLVQSGAEVKRPGASVKVSCKASGYTFTNYDINWVRQATGQGLEWMGWMYPNSGNTGYAQKFQGRVTMTRNTSISTAYMELSSLRSEDTAVYYCASSSGWYYFDYWGQGTLVTVSS
VL: DIVMTQFPDSLAVSLGERATIKCKSSQSVLYSSHNNNYLAWYQQKPGQPPKLLLYWASTRESGVPDRFSGSGSGTEFTLTISSLEAEDVAVYYCQQYYSTPPTFGQGTKVEIK
B15: 4A2 (antibody, V domains shown)
VH: QVQLVQSGTEVKKPGASVKVSCKASGYTFTNYDINWVRQATGQGLEWMGWMHPNSGNTGYAQKFQGRVTLTRNTSISTAYMELSSLRSEDTAVYYCASSSGWYYFDYWGQGTLVTVSS
VL: DIVMTQSPDSLAVSLGERATINCKSSQSILHSSNNNNYLAWFQQKPGQPPKLLLYWASTRESGVPDRFSGSGSGTDFTLTISSLQPEDVAVYYCQQYYNTPVTFGPGTKVGIK

Molecular target: ASGR-1 on HEPG2 Cells (human) (UniProt P07306)
Test: FACS or high content imaging on HepG2 cells; Y = signal at least 2x irrelevant IgG

binding, binds:
B1
B2
B3
B4
B5
B6
B7
B8
B9
B10
B11
B12
B13
B14
B15
